{"source": "the supplement of paper PMC8728848", "binders": {"B1": {"name": "AT3G44510(29) (Arabidopsis thaliana), F4J341 (protein)", "chain": "MEEHLQGRIKLHDGRYLAYKERGVPKDDAKFTIVLVHGFGSSKDMNFNVSQELVNEIGIYFVLYDRAGYGESDPNPKRSLKSEAYDVQELADGLEIGSRFYLIGISMGSYTVWSCLKHIPQRLAGVAMVAPVVNFRWPSIPKSLMPKDYRREVAKWSVWIANYFPGLLQWLVTQNMFSTTSMLEKNPVYFNDQDIEVLKHIKGFPMLTKEKLRERGVFGTLRSDFLVAFGDWDFDPADLPDPSLSGPEKGSSSVHIWQGYEDKVMPFQLQRCLCRKLPWIRYHEVPKGGHLIVHYDGICDAILKSLLLGEDLPMYKPKAVITEPA"}}, "assay_in_all_cases": "glycan array binding signal (z-score within array); higher = stronger binding", "settings_in_all_cases": "glycan notation: IUPAC condensed, linker removed", "key": {"[1]": {"target": "Gal(b1-4)GlcNAc(b1-2)Man(a1-3)[Gal(b1-4)GlcNAc(b1-2)Man(a1-6)]Man(b1-4)GlcNAc(b1-4)GlcNAc", "how_it_was_run": "(§1)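 Columns mapping to the same glycan were averaged after glycan names were converted to IUPAC-condensed notation. The data come from 3228 arrays in the Consortium for Functional Glycomics database, limited to those with an available protein sequence. Binding is reported as a within-array Z-score averaged across arrays of one protein sequence and across linkers.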"}, "[2]": {"target": "Gal(b1-4)GlcNAc(b1-2)Man(a1-3)[Gal(b1-4)GlcNAc(b1-2)Man(a1-6)]Man(b1-4)GlcNAc(b1-4)[Fuc(a1-6)]GlcNAc", "how_it_was_run": "as §1"}, "[3]": {"target": "Gal(b1-4)GlcNAc(b1-2)Man(a1-3)[Gal(b1-4)GlcNAc(b1-2)Man(a1-6)][Gal(b1-4)GlcNAc(b1-4)]Man(b1-4)GlcNAc(b1-4)[Fuc(a1-6)]GlcNAc", "how_it_was_run": "as §1"}, "[4]": {"target": "Gal(b1-4)GlcNAc(b1-2)Man(a1-3)[Gal(b1-4)GlcNAc(b1-2)Man(a1-6)][GlcNAc(b1-4)]Man(b1-4)GlcNAc(b1-4)[Fuc(a1-6)]GlcNAc", "how_it_was_run": "as §1"}, "[5]": {"target": "Gal(b1-4)GlcNAc(b1-2)Man(a1-3)[GlcNAc(b1-2)Man(a1-6)]Man(b1-4)GlcNAc(b1-4)GlcNAc", "how_it_was_run": "as §1"}, "[6]": {"target": "Gal(b1-4)GlcNAc(b1-2)Man(a1-3)[GlcNAc(b1-4)][Gal(b1-4)GlcNAc(b1-2)Man(a1-6)]Man(b1-4)GlcNAc(b1-4)GlcNAc", "how_it_was_run": "as §1"}, "[7]": {"target": "Gal(b1-4)GlcNAc(b1-2)Man(a1-3)[Man(a1-6)]Man(b1-4)GlcNAc(b1-4)GlcNAc", "how_it_was_run": "as §1"}, "[8]": {"target": "Gal(b1-4)GlcNAc(b1-2)Man(a1-6)Man(b1-4)GlcNAc(b1-4)GlcNAc", "how_it_was_run": "as §1"}, "[9]": {"target": "Gal(b1-4)GlcNAc(b1-2)Man(a1-6)[GlcNAc(b1-2)Man(a1-3)]Man(b1-4)GlcNAc(b1-4)GlcNAc", "how_it_was_run": "as §1"}, "[10]": {"target": "Gal(b1-4)GlcNAc(b1-2)Man(a1-6)[Man(a1-3)]Man(b1-4)GlcNAc(b1-4)GlcNAc", "how_it_was_run": "as §1"}, "[11]": {"target": "Gal(b1-4)GlcNAc(b1-2)[Gal(b1-4)GlcNAc(b1-4)]Man(a1-3)[Gal(b1-4)GlcNAc(b1-2)Man(a1-6)]Man(b1-4)GlcNAc(b1-4)GlcNAc", "how_it_was_run": "as §1"}, "[12]": {"target": "Gal(b1-4)GlcNAc(b1-2)[Gal(b1-4)GlcNAc(b1-4)]Man(a1-3)[Gal(b1-4)GlcNAc(b1-2)[Gal(b1-4)GlcNAc(b1-6)]Man(a1-6)]Man(b1-4)GlcNAc(b1-4)GlcNAc", "how_it_was_run": "as §1"}, "[13]": {"target": "Gal(b1-4)GlcNAc(b1-2)[Gal(b1-4)GlcNAc(b1-4)]Man(a1-3)[GlcNAc(b1-4)][Gal(b1-4)GlcNAc(b1-2)Man(a1-6)]Man(b1-4)GlcNAc(b1-4)GlcNAc", "how_it_was_run": "as §1"}, "[14]": {"target": "Gal(b1-4)GlcNAc(b1-2)[Gal(b1-4)GlcNAc(b1-4)]Man(a1-3)[GlcNAc(b1-4)][Gal(b1-4)GlcNAc(b1-2)[Gal(b1-4)GlcNAc(b1-6)]Man(a1-6)]Man(b1-4)GlcNAc(b1-4)GlcNAc", "how_it_was_run": "as §1"}, "[15]": {"target": "Gal(b1-4)GlcNAc(b1-2)[Gal(b1-4)GlcNAc(b1-6)]Man(a1-6)[Gal(b1-4)GlcNAc(b1-2)Man(a1-3)]Man(b1-4)GlcNAc(b1-4)GlcNAc", "how_it_was_run": "as §1"}, "[16]": {"target": "Gal(b1-4)GlcNAc(b1-2)[Gal(b1-4)GlcNAc(b1-6)]Man(a1-6)[Gal(b1-4)GlcNAc(b1-2)Man(a1-3)]Man(b1-4)GlcNAc(b1-4)[Fuc(a1-6)]GlcNAc", "how_it_was_run": "as §1"}, "[17]": {"target": "Gal(b1-4)GlcNAc(b1-2)[Gal(b1-4)GlcNAc(b1-6)]Man(a1-6)[GlcNAc(b1-4)][Gal(b1-4)GlcNAc(b1-2)Man(a1-3)]Man(b1-4)GlcNAc(b1-4)GlcNAc", "how_it_was_run": "as §1"}, "[18]": {"target": "Gal(b1-4)GlcNAc(b1-2)[Gal(b1-4)GlcNAc(b1-6)]Man(a1-6)[GlcNAc(b1-4)][Gal(b1-4)GlcNAc(b1-2)[Gal(b1-4)GlcNAc(b1-4)]Man(a1-3)]Man(b1-4)GlcNAc(b1-4)[Fuc(a1-6)]GlcNAc", "how_it_was_run": "as §1"}, "[19]": {"target": "Gal(b1-4)GlcNAc(b1-3)Gal(b1-3)GalNAc", "how_it_was_run": "as §1"}}, "note": "Some of the results follow."}
{"binder": "B1", "values": [{"measurement": "glycan array binding signal (z-score)", "setting": "[1]", "value": -0.419}, {"measurement": "glycan array binding signal (z-score)", "setting": "[2]", "value": 0.034}, {"measurement": "glycan array binding signal (z-score)", "setting": "[3]", "value": -0.503}, {"measurement": "glycan array binding signal (z-score)", "setting": "[4]", "value": -0.063}, {"measurement": "glycan array binding signal (z-score)", "setting": "[5]", "value": -0.797}, {"measurement": "glycan array binding signal (z-score)", "setting": "[6]", "value": -0.057}, {"measurement": "glycan array binding signal (z-score)", "setting": "[7]", "value": 0.261}, {"measurement": "glycan array binding signal (z-score)", "setting": "[8]", "value": 0.719}, {"measurement": "glycan array binding signal (z-score)", "setting": "[9]", "value": -0.46}, {"measurement": "glycan array binding signal (z-score)", "setting": "[10]", "value": 0.466}, {"measurement": "glycan array binding signal (z-score)", "setting": "[11]", "value": -0.78}, {"measurement": "glycan array binding signal (z-score)", "setting": "[12]", "value": 0.171}, {"measurement": "glycan array binding signal (z-score)", "setting": "[13]", "value": 0.756}, {"measurement": "glycan array binding signal (z-score)", "setting": "[14]", "value": -0.625}, {"measurement": "glycan array binding signal (z-score)", "setting": "[15]", "value": -0.005}, {"measurement": "glycan array binding signal (z-score)", "setting": "[16]", "value": 0.453}, {"measurement": "glycan array binding signal (z-score)", "setting": "[17]", "value": -0.114}, {"measurement": "glycan array binding signal (z-score)", "setting": "[18]", "value": -0.121}, {"measurement": "glycan array binding signal (z-score)", "setting": "[19]", "value": 1.1}]}
